Earlier results in publication PMC7686577, “Discovery of Novel IDH1 Inhibitor Through Comparative Structure-Based Virtual Screening” (Frontiers in Pharmacology, 2020).

Biological target: IDH1^R132H mutant
Conditions: ref Zheng et al., 2017; cited from earlier work

Compound: CCN(CC)CCOc1ccc(C(=C(Cl)c2ccccc2)c2ccccc2)cc1 [clomifene]
- Kd: 18.4 µM
